The source of these data is PMC12168282.

These are yes or no findings as the source states them, for the method shown. In cells and extracts the contact can be indirect. Binding calls can cover weak binding; strength is not graded here.

The target of experiment [1] is T1, membrane-associated ring-CH-type finger 8 (UniProt Q9DBD2).
T1 sequence: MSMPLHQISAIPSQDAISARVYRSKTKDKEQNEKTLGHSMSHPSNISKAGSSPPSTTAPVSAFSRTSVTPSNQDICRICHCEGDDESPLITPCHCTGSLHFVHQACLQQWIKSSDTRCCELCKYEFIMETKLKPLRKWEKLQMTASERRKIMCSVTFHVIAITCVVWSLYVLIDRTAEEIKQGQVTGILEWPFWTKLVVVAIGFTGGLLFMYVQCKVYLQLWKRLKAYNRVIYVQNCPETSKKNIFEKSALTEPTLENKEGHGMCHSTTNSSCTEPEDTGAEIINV
The experiment in a line: co-IP; cell lysate incubated with GPX4 or MARCHF8 antibody or control IgG at 4 C for 3 h, protein A/G magnetic beads overnight, Western blot; control and QG-treated cells. Background: In western blotting, separated proteins are transferred to a membrane and probed.

Another experiment concerns the target glutathione peroxidase 4. The description is as above.

As to glutathione peroxidase 4, the binding entry in experiment [1] is listed as “binds”.

B1: membrane-associated ring-CH-type finger 8 (protein, UniProt Q9DBD2 1-286)
chain: MSMPLHQISAIPSQDAISARVYRSKTKDKEQNEKTLGHSMSHPSNISKAGSSPPSTTAPVSAFSRTSVTPSNQDICRICHCEGDDESPLITPCHCTGSLHFVHQACLQQWIKSSDTRCCELCKYEFIMETKLKPLRKWEKLQMTASERRKIMCSVTFHVIAITCVVWSLYVLIDRTAEEIKQGQVTGILEWPFWTKLVVVAIGFTGGLLFMYVQCKVYLQLWKRLKAYNRVIYVQNCPETSKKNIFEKSALTEPTLENKEGHGMCHSTTNSSCTEPEDTGAEIINV
On to B1, for which, in the experiment with glutathione peroxidase 4, the binding entry is given as “binds”.
